Assay results taken from paper PMC4474334.
These are yes or no findings as the source states them, for the method shown. For some assays here: Binding seen in cells or lysates may run through a third protein. Some binding calls cover weakened binding; strength is not graded here.

The chains behind the UniProt entries cited, without tags or fusion partners. Residues count along the entry.
UniProt P15917, residues 34-809: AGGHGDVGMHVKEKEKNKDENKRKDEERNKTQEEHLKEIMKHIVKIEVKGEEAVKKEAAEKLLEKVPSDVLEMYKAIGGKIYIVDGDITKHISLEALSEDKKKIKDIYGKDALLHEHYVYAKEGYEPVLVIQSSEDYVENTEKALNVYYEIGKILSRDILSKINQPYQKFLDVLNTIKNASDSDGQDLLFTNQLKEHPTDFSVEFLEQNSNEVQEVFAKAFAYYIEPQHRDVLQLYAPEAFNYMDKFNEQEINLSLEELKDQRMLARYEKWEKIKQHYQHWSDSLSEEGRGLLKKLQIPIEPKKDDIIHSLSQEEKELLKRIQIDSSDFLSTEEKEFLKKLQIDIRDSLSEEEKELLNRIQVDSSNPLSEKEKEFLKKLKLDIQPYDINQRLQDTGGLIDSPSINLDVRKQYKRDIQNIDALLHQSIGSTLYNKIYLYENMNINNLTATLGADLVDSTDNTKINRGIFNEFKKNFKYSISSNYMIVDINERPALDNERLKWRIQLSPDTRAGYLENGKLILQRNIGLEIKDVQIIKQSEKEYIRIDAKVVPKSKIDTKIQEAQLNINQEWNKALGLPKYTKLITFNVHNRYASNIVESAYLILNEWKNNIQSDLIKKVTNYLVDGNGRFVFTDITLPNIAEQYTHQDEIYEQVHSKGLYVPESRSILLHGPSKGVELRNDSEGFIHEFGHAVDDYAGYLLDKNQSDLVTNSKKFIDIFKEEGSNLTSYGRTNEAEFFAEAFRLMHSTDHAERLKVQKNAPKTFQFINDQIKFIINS
UniProt Q9D0K2, residues 40-520: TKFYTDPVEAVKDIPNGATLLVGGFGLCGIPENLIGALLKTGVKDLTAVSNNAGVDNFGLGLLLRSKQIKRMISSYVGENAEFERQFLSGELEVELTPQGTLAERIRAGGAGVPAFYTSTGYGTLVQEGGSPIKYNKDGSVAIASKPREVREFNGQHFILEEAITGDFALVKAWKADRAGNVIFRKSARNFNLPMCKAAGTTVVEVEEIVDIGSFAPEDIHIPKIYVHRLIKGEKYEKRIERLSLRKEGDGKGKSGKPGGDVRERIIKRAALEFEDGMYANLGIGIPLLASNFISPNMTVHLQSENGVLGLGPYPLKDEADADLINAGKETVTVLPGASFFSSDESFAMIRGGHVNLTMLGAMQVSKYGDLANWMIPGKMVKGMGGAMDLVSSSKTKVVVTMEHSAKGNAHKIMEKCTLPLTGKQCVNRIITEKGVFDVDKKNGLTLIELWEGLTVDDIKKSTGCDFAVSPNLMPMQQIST
UniProt P63038, residues 27-573: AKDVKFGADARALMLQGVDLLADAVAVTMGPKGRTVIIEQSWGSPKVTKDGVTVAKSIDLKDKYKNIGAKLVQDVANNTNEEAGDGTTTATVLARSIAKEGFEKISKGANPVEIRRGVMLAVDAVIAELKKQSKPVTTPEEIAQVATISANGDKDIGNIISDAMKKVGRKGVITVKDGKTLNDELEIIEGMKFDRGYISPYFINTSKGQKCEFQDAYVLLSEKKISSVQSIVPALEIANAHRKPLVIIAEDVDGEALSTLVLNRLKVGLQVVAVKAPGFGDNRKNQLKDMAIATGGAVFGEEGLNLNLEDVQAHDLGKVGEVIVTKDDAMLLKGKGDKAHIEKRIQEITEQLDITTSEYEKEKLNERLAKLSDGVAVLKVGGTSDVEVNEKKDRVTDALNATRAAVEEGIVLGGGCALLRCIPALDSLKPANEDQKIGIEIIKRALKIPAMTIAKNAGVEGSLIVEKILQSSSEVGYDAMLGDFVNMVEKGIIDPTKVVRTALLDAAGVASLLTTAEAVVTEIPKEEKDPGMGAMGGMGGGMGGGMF
UniProt Q03265, residues 44-553: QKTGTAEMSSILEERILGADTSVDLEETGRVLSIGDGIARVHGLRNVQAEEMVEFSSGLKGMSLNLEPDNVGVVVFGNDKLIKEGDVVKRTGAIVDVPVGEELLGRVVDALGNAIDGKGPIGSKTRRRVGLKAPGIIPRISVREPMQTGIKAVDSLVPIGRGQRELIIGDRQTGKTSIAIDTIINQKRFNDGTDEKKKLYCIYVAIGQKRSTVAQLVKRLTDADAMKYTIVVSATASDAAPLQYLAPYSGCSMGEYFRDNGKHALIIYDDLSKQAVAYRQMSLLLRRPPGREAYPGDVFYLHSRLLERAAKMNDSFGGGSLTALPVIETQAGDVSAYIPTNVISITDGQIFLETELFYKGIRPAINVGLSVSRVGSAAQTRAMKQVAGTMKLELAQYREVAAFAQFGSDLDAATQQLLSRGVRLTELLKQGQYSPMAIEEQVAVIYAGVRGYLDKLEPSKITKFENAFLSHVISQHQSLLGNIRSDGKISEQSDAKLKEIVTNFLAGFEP
UniProt P56480, residues 47-529: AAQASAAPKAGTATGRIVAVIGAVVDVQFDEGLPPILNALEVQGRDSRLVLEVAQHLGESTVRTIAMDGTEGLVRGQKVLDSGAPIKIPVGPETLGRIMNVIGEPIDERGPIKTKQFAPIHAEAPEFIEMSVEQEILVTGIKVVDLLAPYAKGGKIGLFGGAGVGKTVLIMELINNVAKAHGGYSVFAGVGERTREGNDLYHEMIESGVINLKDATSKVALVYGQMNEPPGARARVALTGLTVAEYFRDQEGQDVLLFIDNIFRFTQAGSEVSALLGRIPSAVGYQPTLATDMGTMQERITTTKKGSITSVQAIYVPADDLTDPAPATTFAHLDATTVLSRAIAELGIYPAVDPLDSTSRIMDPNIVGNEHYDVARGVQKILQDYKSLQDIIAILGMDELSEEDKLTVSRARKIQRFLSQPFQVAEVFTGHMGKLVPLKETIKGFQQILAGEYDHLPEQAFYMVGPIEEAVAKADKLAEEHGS

Tests used:
[1] = target: anthrax lethal factor (Bacillus anthracis) (UniProt P15917); experiment: co-IP
[2] = target: T1, Mitochondrial trifunctional enzyme subunit beta (precursor) (mouse (endogenous in MH-S)) (UniProt Q99JY0); experiment: far-Western; only the binder purified
T1 sequence: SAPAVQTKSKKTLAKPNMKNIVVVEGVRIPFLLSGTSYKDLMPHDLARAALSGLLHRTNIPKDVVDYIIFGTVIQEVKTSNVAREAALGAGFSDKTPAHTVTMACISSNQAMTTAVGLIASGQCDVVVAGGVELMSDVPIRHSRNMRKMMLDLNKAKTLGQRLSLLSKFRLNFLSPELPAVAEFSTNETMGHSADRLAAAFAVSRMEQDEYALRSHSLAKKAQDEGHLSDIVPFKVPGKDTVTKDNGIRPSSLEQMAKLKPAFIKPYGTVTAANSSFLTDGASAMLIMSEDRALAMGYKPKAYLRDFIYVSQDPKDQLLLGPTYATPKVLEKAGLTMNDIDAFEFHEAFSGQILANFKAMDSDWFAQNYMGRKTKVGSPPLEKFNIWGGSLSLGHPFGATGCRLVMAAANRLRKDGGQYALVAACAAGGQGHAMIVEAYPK

[3] = target: 3-oxoacid CoA transferase (mouse (endogenous in MH-S)) (UniProt Q9D0K2); experiment: far-Western; only the binder purified
[4] = target: Heat shock protein (60 kD, mitochondrial) (mouse (endogenous in MH-S)) (UniProt P63038); experiment: far-Western; only the binder purified
[5] = target: T2, Short-chain specific acyl-CoA dehydrogenase (precursor) (mouse (endogenous in MH-S)) (UniProt Q07417); experiment: far-Western; only the binder purified
T2 sequence: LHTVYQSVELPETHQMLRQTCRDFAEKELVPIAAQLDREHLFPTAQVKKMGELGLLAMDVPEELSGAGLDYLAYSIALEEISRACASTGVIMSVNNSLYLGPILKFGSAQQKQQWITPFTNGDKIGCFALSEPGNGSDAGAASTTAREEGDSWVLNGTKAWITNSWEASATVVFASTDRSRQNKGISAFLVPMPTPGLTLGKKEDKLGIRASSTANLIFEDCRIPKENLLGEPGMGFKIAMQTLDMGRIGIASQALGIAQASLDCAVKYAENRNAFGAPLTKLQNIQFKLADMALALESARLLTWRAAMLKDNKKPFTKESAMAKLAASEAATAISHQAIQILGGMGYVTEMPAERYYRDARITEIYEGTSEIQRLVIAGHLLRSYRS

[6] = target: Mitochondrial ATP synthase subunit alpha (precursor) (mouse (endogenous in MH-S)) (UniProt Q03265); experiment: far-Western; only the binder purified
[7] = target: T3, Mitochondrial ATP synthase H+ transporting F0 complex subunit b, isoform 1 (precursor) (mouse (endogenous in MH-S)) (UniProt Q9CQQ7); experiment: far-Western; only the binder purified
T3 sequence: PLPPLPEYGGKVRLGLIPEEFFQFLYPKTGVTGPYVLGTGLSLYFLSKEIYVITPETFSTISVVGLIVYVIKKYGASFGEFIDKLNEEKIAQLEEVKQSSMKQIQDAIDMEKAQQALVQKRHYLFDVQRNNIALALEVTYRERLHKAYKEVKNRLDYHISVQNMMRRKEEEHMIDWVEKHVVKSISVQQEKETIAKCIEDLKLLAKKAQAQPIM

[8] = target: Mitochondrial ATP synthase H+ transporting, F1 subunit beta (mouse (endogenous in MH-S and LA-4)) (UniProt P56480); experiment: far-Western; only the binder purified
[9] = target: T4, Mitochondrial ATP synthase subunit O (precursor) (mouse (endogenous in MH-S)) (UniProt Q9DB20); experiment: far-Western; only the binder purified
T4 sequence: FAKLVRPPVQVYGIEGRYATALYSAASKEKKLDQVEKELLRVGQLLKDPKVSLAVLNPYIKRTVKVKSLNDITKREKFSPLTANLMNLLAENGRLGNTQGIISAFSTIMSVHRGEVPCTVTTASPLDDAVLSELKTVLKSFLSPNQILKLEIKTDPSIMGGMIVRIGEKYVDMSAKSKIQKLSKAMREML

[10] = target: T5, Mitochondrial cytochrome bc-1 complex subunit core 1 (precursor) (mouse (endogenous in MH-S)) (UniProt Q9CZ13); experiment: far-Western; only the binder purified
T5 sequence: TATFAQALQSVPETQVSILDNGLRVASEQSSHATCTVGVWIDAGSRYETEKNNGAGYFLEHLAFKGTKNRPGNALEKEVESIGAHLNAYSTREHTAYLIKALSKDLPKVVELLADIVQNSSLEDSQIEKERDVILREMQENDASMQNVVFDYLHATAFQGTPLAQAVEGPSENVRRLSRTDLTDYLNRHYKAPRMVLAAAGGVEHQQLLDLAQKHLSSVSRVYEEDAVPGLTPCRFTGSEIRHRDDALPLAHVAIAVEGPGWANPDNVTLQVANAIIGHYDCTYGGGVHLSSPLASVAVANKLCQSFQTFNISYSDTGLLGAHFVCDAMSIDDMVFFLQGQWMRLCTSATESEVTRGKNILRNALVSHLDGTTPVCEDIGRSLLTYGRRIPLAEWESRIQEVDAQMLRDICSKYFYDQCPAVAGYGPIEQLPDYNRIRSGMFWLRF

[11] = target: T6, Mitochondrial cytochrome bc-1 complex subunit core 2 (precursor) (mouse (endogenous in MH-S)) (UniProt Q9DB77); experiment: far-Western; only the binder purified
T6 sequence: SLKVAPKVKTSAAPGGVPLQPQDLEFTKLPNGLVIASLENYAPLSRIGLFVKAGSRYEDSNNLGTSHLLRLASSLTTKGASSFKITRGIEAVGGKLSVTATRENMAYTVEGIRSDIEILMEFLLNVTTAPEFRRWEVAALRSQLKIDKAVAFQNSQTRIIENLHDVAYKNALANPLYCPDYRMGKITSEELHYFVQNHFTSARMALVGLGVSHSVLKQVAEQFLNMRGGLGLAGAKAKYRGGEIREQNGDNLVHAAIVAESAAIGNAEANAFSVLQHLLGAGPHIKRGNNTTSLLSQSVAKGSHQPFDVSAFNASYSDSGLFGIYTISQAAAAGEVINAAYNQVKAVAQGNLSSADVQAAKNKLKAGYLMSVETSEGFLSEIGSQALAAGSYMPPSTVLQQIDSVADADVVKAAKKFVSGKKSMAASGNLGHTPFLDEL

Measured: binding

Mitochondrial ATP synthase H+ transporting, F1 subunit beta (from UniProt P56480 47-529)
binds: [1]

anthrax lethal factor (from UniProt P15917 34-809) (enzyme)
not listed: [1]
binds: all other assays above
